According to publication PMC8437979:
No constants are given. Whether binding was seen depends on the method and setting. Binding seen in cells or lysates may run through a third protein. Some entries that bind do so weakly or less than the wild type.

Amino acid sequences for entries named in this document (tags omitted).
UniProt Q99942: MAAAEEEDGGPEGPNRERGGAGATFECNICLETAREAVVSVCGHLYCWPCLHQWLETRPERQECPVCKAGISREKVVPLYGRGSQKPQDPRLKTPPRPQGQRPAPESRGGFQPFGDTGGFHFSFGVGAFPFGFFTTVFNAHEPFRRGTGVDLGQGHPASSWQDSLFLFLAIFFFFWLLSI
UniProt Q09028: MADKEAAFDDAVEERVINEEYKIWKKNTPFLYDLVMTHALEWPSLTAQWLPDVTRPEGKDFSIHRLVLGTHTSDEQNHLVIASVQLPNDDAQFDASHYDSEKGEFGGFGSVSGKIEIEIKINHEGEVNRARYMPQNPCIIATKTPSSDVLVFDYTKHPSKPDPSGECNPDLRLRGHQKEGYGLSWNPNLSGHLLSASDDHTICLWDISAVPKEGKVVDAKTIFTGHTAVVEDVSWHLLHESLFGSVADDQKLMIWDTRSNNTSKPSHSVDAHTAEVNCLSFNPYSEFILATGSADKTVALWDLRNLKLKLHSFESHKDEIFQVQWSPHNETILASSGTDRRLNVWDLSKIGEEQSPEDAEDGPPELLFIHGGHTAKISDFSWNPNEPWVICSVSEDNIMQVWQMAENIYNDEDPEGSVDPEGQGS

Assays:
[1] = molecular target: Flag-tagged full-length RNF5 (WT) (UniProt Q99942); assay: co-IP; HEK293T cells transfected with Flag-tagged RNF5 WT, RM or ∆CT; endogenous RBBP4 detected by western blot; MG132 (10 µm, 4 h) before lysis; TBS-lysis buffer (50 mM Tris-HCl pH 7.5, 150 mM NaCl, 0.5% Nonidet P-40), protein A/G agarose
[2] = molecular target: Doxycycline-inducible Flag-tagged RNF5 (WT) in MOLM-13 cells (UniProt Q99942); assay: co-IP; MOLM-13 cells with doxycycline-inducible Flag-tagged RNF5 and endogenous RBBP4; 2 days with or without doxycycline (1 µg/ml); MG132 (10 µm, 4 h) before lysis; TBS-lysis buffer, protein A/G agarose
[3] = molecular target: Myc-RBBP4 (UniProt Q09028); assay: co-IP; reciprocal IP with RBBP4 as bait; HEK293T cells co-expressing Myc-RBBP4 and Flag-tagged RNF5-WT; MG132 (10 µm, 4 h) before lysis; TBS-lysis buffer, protein A/G agarose

With “Endogenous RBBP4 (retinoblastoma binding protein 4) of HEK293T cells (from UniProt Q09028 1-425)” the binding [1] was “binds”.
With “Endogenous RBBP4 (retinoblastoma binding protein 4) of MOLM-13 cells (from UniProt Q09028 1-425)” the binding [2] was “binds”.
For “Flag-tagged full-length RNF5 (WT) (from UniProt Q99942 1-180) (enzyme)”, the binding [3] was “binds”.
